Reference: PubChem BioAssay AID1224826 (NIAID, 2016)
Here is a random part of about 17,000 reagents tested. In the full data, about 1,110 (6.6%) are marked active. 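Active means lowered or raised reporter signal; replicate intensities are raw and not normalised per plate.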 Entries without a mark were called inactive. Further read-outs or replicates are left out here.

Test: 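Genes that change LPS-induced Tnf promoter activity in mouse macrophages when knocked down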 (primary screen)
System: RAW264.7 G9 macrophages from mouse bearing reporters for p65 (GFP) and the Tnf promoter (mCherry)
Knock-down reagent: siRNA pool against mouse genes, 100 nM
Duration: 16 h of LPS stimulation, after 2 days of siRNA transfection
Challenge: bacterial lipopolysaccharide (Salmonella minnesota R595), 10 ng/ml
Detection: 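Nuclear mCherry signal of the Tnf promoter reporter measured by imaging after background removal, scaled to each plate median and turned into robust z-scores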
Scale: Tnf reporter robust z-score: higher = stronger Tnf promoter reporter signal after LPS
Call rule: 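a well counts as active at a score of -1.3 or below (Tlr4 knock-down control median) or above 3 (raised signal); controls and wells holding fewer than 50 cells are excluded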
Meaning of the calls: active = Tnf reporter clearly lowered or raised; inactive = no clear change in Tnf reporter

With knock-down of Or8c9 (olfactory receptor family 8 subfamily C member 9), the record shows Tnf reporter robust z-score -0.57; fewer than 50 cells in well enough cells in well.
Silencing of 5930422O12Rik (RIKEN cDNA 5930422O12 gene) came out at: Tnf reporter robust z-score -0.04; fewer than 50 cells in well enough cells in well.
After knock-down of Wnt16 (WNT family member 16), the screen gave Tnf reporter robust z-score 1.53; fewer than 50 cells in well enough cells in well.
Depletion of Defa4 (defensin, alpha, 4) resulted in: Tnf reporter robust z-score 1.34; fewer than 50 cells in well enough cells in well.
Knock-down of 1700001G17Rik (RIKEN cDNA 1700001G17 gene) resulted in: Tnf reporter robust z-score -1.6 (active); fewer than 50 cells in well enough cells in well.
With knock-down of Ankrd33b (ankyrin repeat domain 33B) the results were Tnf reporter robust z-score -0.14; fewer than 50 cells in well enough cells in well.
Against Arrb1 (arrestin, beta 1), the values are Tnf reporter robust z-score 0.71; fewer than 50 cells in well enough cells in well.
Against Pilrb1 (paired immunoglobin-like type 2 receptor beta 1), the entry reads fewer than 50 cells in well fewer than 50 cells per well; well left out of calls.
Phf7 (PHD finger protein 7) showed Tnf reporter robust z-score -1.48 (active); fewer than 50 cells in well enough cells in well.
For Pccb (propionyl Coenzyme A carboxylase, beta polypeptide), the values are Tnf reporter robust z-score -0.12; fewer than 50 cells in well enough cells in well.
After knock-down of Eaf2 (ELL associated factor 2) the results were Tnf reporter robust z-score 0.04; fewer than 50 cells in well enough cells in well.
Knock-down of Ep300 (E1A binding protein p300) gave: Tnf reporter robust z-score -1.29; fewer than 50 cells in well enough cells in well.

Reformatted: 4 of the entries above.
{"gene": "5930422O12Rik (RIKEN cDNA 5930422O12 gene)", "Tnf reporter robust z-score": -0.04, "fewer than 50 cells in well": "enough cells in well"}
{"gene": "Wnt16 (WNT family member 16)", "Tnf reporter robust z-score": 1.53, "fewer than 50 cells in well": "enough cells in well"}
{"gene": "Defa4 (defensin, alpha, 4)", "Tnf reporter robust z-score": 1.34, "fewer than 50 cells in well": "enough cells in well"}
{"gene": "1700001G17Rik (RIKEN cDNA 1700001G17 gene)", "Tnf reporter robust z-score": "-1.6 (active)", "fewer than 50 cells in well": "enough cells in well"}

Additional entries follow.
Depletion of Ctsd (cathepsin D) came out at: Tnf reporter robust z-score -0.83; fewer than 50 cells in well enough cells in well.
Against Mrgpra7 (MAS-related GPR, member A7), the entry reads Tnf reporter robust z-score 2.28; fewer than 50 cells in well enough cells in well.
With knock-down of Prkch (protein kinase C, eta) the results were Tnf reporter robust z-score -0.41; fewer than 50 cells in well enough cells in well.
Against Kcnk5 (potassium channel, subfamily K, member 5), the values are Tnf reporter robust z-score 1.28; fewer than 50 cells in well enough cells in well.
Knock-down of Cimip2a (ciliary microtubule inner protein 2A) gave: fewer than 50 cells in well fewer than 50 cells per well; well left out of calls.
For Zfyve1 (zinc finger, FYVE domain containing 1), the entry reads fewer than 50 cells in well fewer than 50 cells per well; well left out of calls.
Knock-down of Adgra2 (adhesion G protein-coupled receptor A2) resulted in: Tnf reporter robust z-score -0.01; fewer than 50 cells in well enough cells in well.
Dach1 (dachshund family transcription factor 1) scored Tnf reporter robust z-score 0.62; fewer than 50 cells in well enough cells in well.
After knock-down of Mindy4 (MINDY lysine 48 deubiquitinase 4), the record shows Tnf reporter robust z-score 0.83; fewer than 50 cells in well enough cells in well.
Eomes (eomesodermin) scored Tnf reporter robust z-score -1.08; fewer than 50 cells in well enough cells in well.
Knock-down of Poli (polymerase (DNA directed), iota) resulted in: Tnf reporter robust z-score -1.36 (active); fewer than 50 cells in well enough cells in well.
For Slc7a10, the entry reads Tnf reporter robust z-score -1.35 (active); fewer than 50 cells in well enough cells in well.
With knock-down of Oas3 (2'-5' oligoadenylate synthetase 3), the record shows Tnf reporter robust z-score 0.41; fewer than 50 cells in well enough cells in well.
Silencing of Pcca (propionyl-Coenzyme A carboxylase, alpha polypeptide) resulted in: Tnf reporter robust z-score 0.87; fewer than 50 cells in well enough cells in well.
After knock-down of Cep95 (centrosomal protein 95), the record shows fewer than 50 cells in well fewer than 50 cells per well; well left out of calls.
